Out of some 360,000 compounds screened, about 7,500 (2.1%) were called active. The shares of active, inactive and inconclusive entries below differ from those in the screen. Calls come from the whole dose curve; as a rule, active = well fitted inhibition curve with a large enough effect; inconclusive = small, poorly fitted or top-dose-only effect, or effect the other way; inactive = flat fitted curve, though single readings scatter. Potencies of inconclusive entries are doubtful fits and often do not repeat.
Test: Nrf2 qHTS screen for inhibitors; note: nearly all actives have a fitted effect of over 60% in size
Conditions: A549 ARE-Fluc reporter, luciferase luminescence, 18-24 h; series mostly up to 46 µM
Procedure, shortened: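 Quantitative HTS in A549 cells stably bearing an antioxidant response element-firefly luciferase construct. Inhibition of Nrf2-driven transcription was scored by luminescence after 18-24 h of compound exposure at 37 °C.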
In the case of `COc1cccc(NS(=O)(=O)c2ccc3[nH]cc(C(=O)NC4CCCCC4)c(=O)c3c2)c1`, the Potency was inconclusive: 16.4 µM [falling, single point].
In the case of `CC(=O)N1CCN(c2ccc(NCc3cccc4ccccc34)cc2)CC1`, the Potency was inconclusive: 23.1 µM [falling, partial curve].
For `O=[N+]([O-])c1cccc(-c2cn3ccccc3n2)c1`, the Potency was inconclusive: 2.91 µM [activator, full curve].
With `O=C(O)CCn1cc(-c2ccc(F)cc2)nc1-c1ccncc1` the Potency was inconclusive: 29.1 µM [activator, single point].
In the case of `CCCN1CCC(=O)N(C(CSc2ccc(Br)cc2)c2ccccc2)CC1` (stereo unspecified), the Potency was inconclusive: 23.1 µM [activator, partial curve, poor fit].
With `O=C(c1cn(CC2CCCCC2)nn1)N1CCN(c2ccc(F)cc2)CC1` the Potency was inconclusive: 23.1 µM [falling, single point].
With `CC(C)CCNC(=O)c1cn(CC(C)C)c(=O)c2c1c1ccccc1n2C` the Potency was “inactive”.
In the case of `CC1COc2ccccc2N1S(=O)(=O)c1ccccc1` (stereo unspecified), the Potency was inconclusive: 16.4 µM [falling, partial curve].
For `COC(=O)C1=C(CCc2ccccc2)NC(=O)NC1c1ccc([N+](=O)[O-])cc1` (stereo unspecified), the Potency was inconclusive: 2.31 µM [falling, partial curve].
With `CCn1cc2nc(SCc3cccc(OC)c3)n(Cc3ccc(Cl)cc3)c(=O)c2n1` the Potency was inconclusive: 20.6 µM [falling, single point].
In the case of `CCCCn1nnnc1NCc1cccnc1`, the Potency was inconclusive: 0.146 µM [activator, full curve, poor fit].
In the case of `Cc1ccc(C(=O)N2CCc3ccccc32)o1`, the Potency was inconclusive: 2.06 µM [activator, full curve, poor fit].
For `CC(C)(C)c1ccc(-c2noc(CCC(=O)NCc3ccco3)n2)cc1`, the Potency was active: 0.0184 µM.
With `Cc1cccc(NC(=O)C(c2cccc([N+](=O)[O-])c2)N2CCCCC2)c1` (stereo unspecified) the Potency was inconclusive: 29.1 µM [falling, single point].
In the case of `CN1CCN(c2ccc3c(c2)C2CC3CCN2C(=O)OCc2ccccc2)CC1` (stereo unspecified), the Potency was inconclusive: 29.1 µM [activator, single point].
In the case of `O=[N+]([O-])c1ccc(O)c2ncccc12`, the Potency was active: 3.66 µM.
In the case of `O=C(CCCN=C1NS(=O)(=O)c2ccccc21)OCc1ccc(F)cc1`, the Potency was inconclusive: 9.2 µM [falling, partial curve, poor fit].
With `Cc1ccc(-c2cc(-c3ccccc3)nc(NN)n2)cc1` the Potency was inconclusive: 16.4 µM [falling, single point].
For `CCOc1ccc(-c2c(C)nn3c(C)c(C(=O)NCC(C)c4ccccc4)cnc23)cc1OCC` (stereo unspecified), the Potency was inconclusive: 29.1 µM [falling, single point].
In the case of `CN(c1ccccc1)S(=O)(=O)c1cccc(C(=O)N2CCCCCC2)c1`, the Potency was inconclusive: 29.1 µM [falling, single point].
For `O=c1oc(C2(O)CCCCC2)cc2ccc(-c3ccc4[nH]ccc4c3)cc12`, the Potency was inconclusive: 0.58 µM [activator, full curve, poor fit].
For `CSc1nc(N)n2nc(-c3ccc(Cl)cc3)cc2n1`, the Potency was inconclusive: 5.17 µM [activator, partial curve].
In the case of `COc1ccc(C(O)c2nccn2C)cc1` (stereo unspecified), the Potency was inconclusive: 0.0041 µM [falling, full curve, poor fit].
With `CC(C)CCn1c(=O)c2sccc2n2c(CCCC(=O)N3CCC(N4CCCCC4)CC3)nnc12` the Potency was inconclusive: 29.1 µM [falling, single point].
For `O=C(Nc1ccccc1N1CCOCC1)C1CCN(S(=O)(=O)c2ccccc2F)CC1`, the Potency was “inactive”.
With `COc1ccc(OC)c(CCNC(=O)CS(=O)(=O)Cc2nc(-c3ccccc3Cl)oc2C)c1` the Potency was inconclusive: 18.4 µM [falling, partial curve, poor fit].
In the case of `Clc1c(CSc2nc3ccccc3o2)nc2ccccn12`, the Potency was inconclusive: 1.46 µM [activator, full curve].
With `COC(=O)c1ccc(NC(=S)NCCCn2ccnc2)cc1` the Potency was “inactive”.
For `O=C(C1CCN(S(=O)(=O)N2CCOCC2)CC1)N1CCN(c2ccccc2F)CC1`, the Potency was “inactive”.
In the case of `O=C(Nc1ccccc1C(F)(F)F)c1noc2c1CCCCC2`, the Potency was inconclusive: 9.2 µM [activator, partial curve].
In the case of `COc1ccc(-c2ccc(SCC(=O)N3CC(=O)Nc4ccccc43)nn2)cc1`, the Potency was inconclusive: 32.6 µM [falling, single point].
For `Cc1cccn2c(=O)c3cc(C(=O)NC4CCCCCC4)sc3nc12`, the Potency was inconclusive: 1.03 µM [activator, full curve, poor fit].
For `CCc1cccc(C)c1Nc1c(-c2ccc(N3CCOCC3)cc2)nc2ncccn12`, the Potency was inconclusive: 29.1 µM [falling, single point].
In the case of `CSCCC(NC(=O)c1ccco1)C(=O)Nc1cc(C)ccn1` (stereo unspecified), the Potency was inconclusive: 20.6 µM [activator, partial curve].
With `COc1cccc(C(=O)NCC(c2cccs2)N2CCOCC2)c1` (stereo unspecified) the Potency was inconclusive: 18.4 µM [activator, single point].
With `COCCCNc1oc(/C=C/c2ccccc2)nc1C#N` the Potency was inconclusive: 0.461 µM [activator, full curve, poor fit].
In the case of `CC(C)N(CCO)C(=O)CCc1nnc(CCCc2ccccc2)o1`, the Potency was inconclusive: 20.6 µM [activator, single point].
For `CCOC(=O)c1sc2nc3c(SCC(=O)O)cc(C(=O)c4cc(F)ccc4O)cn3c(=O)c2c1C`, the Potency was “inactive”.
In the case of `CC(=O)c1cccc(S(=O)(=O)N2CCN(CCOc3ccccc3)CC2)c1`, the Potency was inconclusive: 18.4 µM [falling, single point].
In the case of `Cc1ccc(N(Cc2ccco2)C(=O)c2ccc(N3CCCCC3)c([N+](=O)[O-])c2)cc1`, the Potency was inconclusive: 29.1 µM [falling, single point].
With `CCc1ccc(N2C(=O)CS(=O)(=O)C23C(=O)N(Cc2ccccc2)c2ccccc23)cc1` (stereo unspecified) the Potency was inconclusive: 25.9 µM [falling, partial curve, poor fit].
Potency is the fitted concentration of half-maximal effect.
